According to patent US7087756B2, “Isoxazolopyridinones” (Novartis AG, priority 2001, dated 2006):
Some results were stated once for a whole list of compounds, not compound by compound.

Test system: OF1 mice
Assay: Dopamine levels in substantia nigra and striatal tissue punches of treated OF1 mice
Type: in vivo
Conditions: 5, 10 and 30 mg/kg p.o.; treated five days, sacrificed 5 hours after last application

| Structure (SMILES) | increase of dopamine levels |
| --- | --- |
| CN(C)Cc1ccc(-c2cc3onc(-c4ccccc4)c3c(=O)[nH]2)cc1 [Example 11, 6-(4-Dimethylaminomethyl-phenyl)-3-phenyl-5H-isoxazolo[4,5-c]pyridin-4-one] | 20–30% |
| COCCOCc1ccc(-c2cc3onc(-c4ccccc4)c3c(=O)n2C)cc1 [Example 7, 6-[4-(2-Methoxy-ethoxymethyl)-phenyl]-5-methyl-3-phenyl-5H-isoxazolo[4,5-c]pyridin-4-one] | 20–30% |
